Test results published in patent EP2890687B1, “SALTS OF BENZO[…] AS BETA-2-AD[…]” (priority 2012, dated 2014).

Tests used:
[1] = test system: skeletal muscle and heart; conditions: rats, s.c. minipump 28 days; formoterol 0.003-0.03, Compound A 0.01-0.1 mg/kg/day
Sino-Atrial node = Sino-Atrial node beating rate in isolated rabbit right atrium; design: species or system New Zealand white female rabbits; conditions: n=6
[2] = test system: isolated Langendorff perfused rabbit hearts; assay: Automaticity in isolated Langendorff perfused rabbit hearts; conditions: isolated rabbit heart, n=3

With `COc1ccc(CC(C)NCC(O)c2ccc(O)c(NC=O)c2)cc1` (stereo not drawn) [Formoterol, reference compound] the “skeletal muscle mass and heart mass increase (Figure 1)” value [1] was “induces both skeletal muscle hypertrophy and heart mass increase to the same extent”, the “Sino-Atrial node beating rate, maximum increase” value (Sino-Atrial node) was “+45%” and the “Automaticity, maximum increase” value [2] was “+46%”.
